Results published in doi:10.1101/313494.
These are yes or no findings as the source states them, for the method shown. In cells and extracts the contact can be indirect. Some entries that bind do so weakly or less than the wild type. Tags and fused reporters may be left off the sequences shown. Blank lines part the entries; values can stand above or below the binder they belong to.

Tests used:
[1] = target: T1, YFP-SAS-4 (Drosophila SAS-4/CPAP expressed in fission yeast) (Drosophila) (UniProt Q9VI72); assay: co-IP
T1 sequence: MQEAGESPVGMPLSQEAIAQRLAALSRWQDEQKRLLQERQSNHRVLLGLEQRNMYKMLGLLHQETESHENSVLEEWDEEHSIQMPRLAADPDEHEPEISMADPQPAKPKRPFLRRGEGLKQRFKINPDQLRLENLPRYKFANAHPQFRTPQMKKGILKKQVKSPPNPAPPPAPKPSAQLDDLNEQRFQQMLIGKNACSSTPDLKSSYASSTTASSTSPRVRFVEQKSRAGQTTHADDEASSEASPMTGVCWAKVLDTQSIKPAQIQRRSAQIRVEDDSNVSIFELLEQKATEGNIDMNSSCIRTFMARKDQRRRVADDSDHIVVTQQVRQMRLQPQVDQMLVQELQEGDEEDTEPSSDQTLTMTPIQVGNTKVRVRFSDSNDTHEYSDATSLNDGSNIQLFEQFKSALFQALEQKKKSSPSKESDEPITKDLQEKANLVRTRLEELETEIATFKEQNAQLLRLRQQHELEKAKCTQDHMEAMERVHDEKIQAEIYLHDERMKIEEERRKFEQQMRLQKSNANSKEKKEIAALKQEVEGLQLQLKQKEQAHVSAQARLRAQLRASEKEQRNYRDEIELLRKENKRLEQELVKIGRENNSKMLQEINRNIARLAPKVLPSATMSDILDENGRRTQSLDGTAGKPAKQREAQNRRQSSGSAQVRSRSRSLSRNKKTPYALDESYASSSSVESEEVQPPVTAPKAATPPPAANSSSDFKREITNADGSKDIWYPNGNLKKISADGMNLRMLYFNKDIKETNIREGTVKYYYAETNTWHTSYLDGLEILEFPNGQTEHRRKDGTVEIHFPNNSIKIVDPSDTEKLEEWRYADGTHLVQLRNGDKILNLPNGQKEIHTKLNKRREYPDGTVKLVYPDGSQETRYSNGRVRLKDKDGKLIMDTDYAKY

[2] = target: T2, SAS-6-GFP (Drosophila SAS-6 expressed in fission yeast) (Drosophila) (UniProt Q9VAC8); assay: co-IP
T2 sequence: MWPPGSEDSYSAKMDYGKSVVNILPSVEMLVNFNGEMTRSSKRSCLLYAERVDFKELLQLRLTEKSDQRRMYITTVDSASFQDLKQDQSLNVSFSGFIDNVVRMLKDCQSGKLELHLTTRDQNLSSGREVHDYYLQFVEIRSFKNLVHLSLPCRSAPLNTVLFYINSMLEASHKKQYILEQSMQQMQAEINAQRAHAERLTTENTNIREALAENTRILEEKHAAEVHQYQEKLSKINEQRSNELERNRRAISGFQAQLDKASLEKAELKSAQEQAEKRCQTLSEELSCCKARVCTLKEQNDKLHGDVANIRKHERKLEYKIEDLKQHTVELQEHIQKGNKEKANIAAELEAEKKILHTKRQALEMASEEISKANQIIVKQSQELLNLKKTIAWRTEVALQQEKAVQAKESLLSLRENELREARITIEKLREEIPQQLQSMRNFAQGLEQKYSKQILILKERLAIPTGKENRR

- binding [1]: binds
- binding [2]: binds
B1: HA-tagged Pcp1 (fission yeast pericentrin orthologue) (protein, UniProt Q92351 1-1208)
chain: MSERDFNTQSPKFKDENANSVISQSDFLGKSLKNNNDDYSDFRGSYLNDKSSFQTPLRNGSYQPKGSLEFTPLLQSSNKNSDKYNGSLGDKGSFDPNSYGLSAISKQATQEALSISQGNDSYDVSKLTDLSKNSEIDHTDGELPANAALTLREQEKVLEKVSRENFGLRIKIVCLEKRLESMAPEQIKEAVKDNVELHAERANLQLQLKRTESLLQKSEDKNFKLEEKVDYLSKVNDVEQSQNVKVFTERIRFLENALEKVQREKDSLSTEMEEDKSNKEVDYEYEIRQLQNRLDELSEELDVAQDLLTEKEDEIATLKRQIEEKENSSSAFENEENSSYVHLQEDYAILQAKCDEFADRIQVLTADLEKEKENQIMHESEASIGLTDSMQVHTLQEQLHKANEEIEFLHDQISRMNEEGKNFEDIMLQFRSLEEERDVLESKLQTLEDDNNSLRLMTSSLGNQIESLRTQNREIDEEKNHLRLLASKNSDKALAETNIRLQEVTKELETLRMKNSNDLNEIHDLREENEGLTLKIDSITKEKDRLINELEQRIKSYEVNVSELNGTIDEYRNKLKDKEETYNEVMNAFQYKDNDLRRFHESINKLQDREKELTSNLEKKNLVISSLRETVAMLEKERESIKKYLSGNAKDLDNTNLMEILNDKISVLQRQLTDVKDELDVSEEEREEAIVAGQKLSASFELMSNEKQALELKYSSLKNELINAQNLLDRREEELSELSKKLFEERKIRSGSNDDIEKNKEINVLNSELADKLAQIRHLESDKMELDKLVHHLNRGIEEANIEENAVKKRLCLLMGCDYSSVSILQIVSQIEHFVNQQIQTIRSLKQELRHDFVQFSGKKEQELSRSFEKFGLGTETKHDILAQRNRNVSEKMNDLENAAQKFFSSPDRKNGYLYPSEHTSKIEYLEKTIEDLKLALQDELKNRNLLMDDISSYNKQTTKLQEKIKWLERERSILIDELESYRSNQFNYQNNLVQDKNELEERLKEIQKELEVYNNHFMKQAELMTSNVTDESQLMLKTLREALQSKTNNIDHLSTILERNRKEYKSLLDDYNQLRARYKNLQSNTPQSTQSGQYESEIKGLSKLTKYLQSKCRREHSLRLDLAFSKKFILMQLTGYETCNKINLRMLQKIGISPDPDLSKKHIKLKSLIIVVCSIERMKRMKNEWLKQAQLKQSLQRAAAKAKTANY

- binding [2]: binds
B2: mCherry-tagged full-length Pcp1 (protein, UniProt Q92351 1-1208)
chain: B1 chain
